This is one part of the list.
These sequences were tested against OsWRKY34 (Oryza sativa, UniProt Q0JBA9 1-250) (assay: protein-binding microarray (RPBM); PBS, 2% BSA, 51.3 ng/ul salmon testes DNA, 50 uM zinc acetate, 200 nM TF, 25 C, 1 h; high values mean tight binding). Conditions: protein: recombinant; tags: N-terminal polyhistidine and DsRed monomer fusion (pET32a); label: CyDye5-dUTP incorporated in the synthesized complementary strand; 3' TTTTT single-stranded linker to array surface; dsDNA, one strand shown.
Procedure, shortened: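 The binding signal is fluorescence intensity per feature, in arbitrary units, read on an Axon 4000B scanner. Polyhistidine- and DsRed-tagged transcription factors (N-terminal fusions) from E. coli BL21-CodonPlus were purified on Ni–NTA and applied at 200 nM for 1 h at 25 °C to a double-stranded, BSA-blocked custom Agilent array in buffer with 50 µM zinc acetate.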

Amino acid sequences for entries named in this document (tags omitted).
UniProt Q0JBA9, entry or part of it: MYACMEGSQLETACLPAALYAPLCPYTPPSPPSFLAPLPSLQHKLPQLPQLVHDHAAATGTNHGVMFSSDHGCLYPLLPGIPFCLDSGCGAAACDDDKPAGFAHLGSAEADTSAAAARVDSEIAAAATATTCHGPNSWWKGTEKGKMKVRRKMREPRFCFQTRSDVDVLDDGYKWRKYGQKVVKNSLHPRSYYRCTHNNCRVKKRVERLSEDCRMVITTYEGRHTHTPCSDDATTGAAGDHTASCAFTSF

Sequence | binding signal
AGTGTAACTACATTCTACTCAATCTCCTTATTTGTCGTGCCGGAGTCACCTAGTGCAG | 8240 fluorescence intensity (a.u.)
TCTTTTTTCTCTTCTTCTTCTCCTCCATTCCATTCCATTTCGGAGTCACCTAGTGCAG | 8930 fluorescence intensity (a.u.)
AATCCAGCTTTGGCTTATAGTTCATTTTCTAGATTCTACACGGAGTCACCTAGTGCAG | 12700 fluorescence intensity (a.u.)
AACGTTTTAATTAAGCTTTCGGTTTTGTCCACTACCCCACCGGAGTCACCTAGTGCAG | 9570 fluorescence intensity (a.u.)
CAACTTTGTCTCCGTGCCTTCCGGGCGTGCTCCTCAATTTCGGAGTCACCTAGTGCAG | 8350 fluorescence intensity (a.u.)
CTCTCGCCGTCTCCATCTCCGCCTCGAATCCTTCCCTCTCCGGAGTCACCTAGTGCAG | 11700 fluorescence intensity (a.u.)
ACCGTCCTCCGCGCCGCTCACCGACCTCGACGGCGTCCTCCGGAGTCACCTAGTGCAG | 8330 fluorescence intensity (a.u.)
CTCGGCCCGCTCTGCTTCGACGTCGGCCCCTCCGCGCTGTCGGAGTCACCTAGTGCAG | 9040 fluorescence intensity (a.u.)
CATCCGTTCCCAGATACTGGTCCTTCAACCGCGATCCACGCGGAGTCACCTAGTGCAG | 8170 fluorescence intensity (a.u.)
CCAGCGTTGTTGGATCGCCAACTATATTTGCCACTATCATCGGAGTCACCTAGTGCAG | 8960 fluorescence intensity (a.u.)
CATTTCGATTATTCCTGAGACGTTGCTTCTTGCTTGTGCTCGGAGTCACCTAGTGCAG | 9080 fluorescence intensity (a.u.)
GGGTAGGGGTAGGGTTGATAGAGAGAGGTTCCGGGATGACCGGAGTCACCTAGTGCAG | 8860 fluorescence intensity (a.u.)
TCGATCTCATCCCAACCTGTTCGATCGTCGCCTCCGCCGACGGAGTCACCTAGTGCAG | 10600 fluorescence intensity (a.u.)
ATCTGCTGCCTACTGCGATTTTATCTTTTGTTTCTGTGGCCGGAGTCACCTAGTGCAG | 10600 fluorescence intensity (a.u.)
CCACCGTTGGTCGACCCCGTTCCGTTTGGCCGTTTCCCAACGGAGTCACCTAGTGCAG | 10300 fluorescence intensity (a.u.)
AAGATAGAGCTGACACGTGGGTTTTAGGTATTTTGGTTAACGGAGTCACCTAGTGCAG | 8240 fluorescence intensity (a.u.)
GTCATAGAATATATCATATCCGGTTCTAGATTCGTTTTTTCGGAGTCACCTAGTGCAG | 8510 fluorescence intensity (a.u.)
GAGAGCTGTCTCCGCCACTACATATCACCCAACCAACTTCCGGAGTCACCTAGTGCAG | 11000 fluorescence intensity (a.u.)
GGCCGGCGTGGTGGGTTGGAGGGGCGCATGCTCCCGCTGGCGGAGTCACCTAGTGCAG | 11000 fluorescence intensity (a.u.)
CCAGTCAATTAGTCAAACCCCATCCACCTCTCCTGGCTCTCGGAGTCACCTAGTGCAG | 8210 fluorescence intensity (a.u.)
CGCGAGAGCTACATTTTTGTCTTCGTTTTAATCACGTCAACGGAGTCACCTAGTGCAG | 9210 fluorescence intensity (a.u.)

2 records drawn at random from the list so far, as already listed:
Sequence | binding signal
CCAGCGTTGTTGGATCGCCAACTATATTTGCCACTATCATCGGAGTCACCTAGTGCAG | 8960 fluorescence intensity (a.u.)
CAACTTTGTCTCCGTGCCTTCCGGGCGTGCTCCTCAATTTCGGAGTCACCTAGTGCAG | 8350 fluorescence intensity (a.u.)

More results

Sequence | binding signal
TGTACCCCTGAAATTTCGCTTTGATCTCTTCCGTGTGTTCCGGAGTCACCTAGTGCAG | 8980 fluorescence intensity (a.u.)
CATCTTCTCGCTCGCCTCTCGCTGTCTCGCACTCGCCGCCCGGAGTCACCTAGTGCAG | 9550 fluorescence intensity (a.u.)
GTTGAGGGACGCGTTATATTTGGGGCTTGTTCACTTTGATCGGAGTCACCTAGTGCAG | 8230 fluorescence intensity (a.u.)
AACGACCACACCAGATGATCTCTCCGCACGCCGTCCTGTCCGGAGTCACCTAGTGCAG | 11600 fluorescence intensity (a.u.)
ACTCCTCACATATATATATATACCACATTGTTGTCATGGCCGGAGTCACCTAGTGCAG | 8490 fluorescence intensity (a.u.)
CTTCCTGTCTCCTTCTTCTTCAGGGAAGTCTATTTCTTTTCGGAGTCACCTAGTGCAG | 8590 fluorescence intensity (a.u.)
ATGTTTTTCCTATTTCTCCGTTTTTTCATTCCTGTAATTCCGGAGTCACCTAGTGCAG | 8080 fluorescence intensity (a.u.)
TAGAGAAAATAACGTGGAGCTGAGACGGGTGGTGGAGGGGCGGAGTCACCTAGTGCAG | 10200 fluorescence intensity (a.u.)
CCCCGCCATCGCGGACTCCAATGATAAAATATCCTCTTCTCGGAGTCACCTAGTGCAG | 8800 fluorescence intensity (a.u.)
CTTATAAACGCCGCTTTGTGCTTCAATGCCACCAACTCAACGGAGTCACCTAGTGCAG | 13000 fluorescence intensity (a.u.)
TCGCTGTTTAGTTATGAAATTAGTTTTTTCATTCGTGTCCCGGAGTCACCTAGTGCAG | 8980 fluorescence intensity (a.u.)
GGACGTAGCCGTCGTCCTAGTCACTCACTCACTCATCACGCGGAGTCACCTAGTGCAG | 8780 fluorescence intensity (a.u.)
GACCCATGCTTTACTTCTTAAATCATATAGACTTATATAACGGAGTCACCTAGTGCAG | 9360 fluorescence intensity (a.u.)
GGAAGGAGCGGGTGTGGGATGGGATCTGAGAGGGTGAGGACGGAGTCACCTAGTGCAG | 12100 fluorescence intensity (a.u.)
TCTTTCCGTTGACTCTCGCGATTCCAAACACGATGGCTTGCGGAGTCACCTAGTGCAG | 11000 fluorescence intensity (a.u.)
TATATCCTATCTCTCACTTCACTCATATAGTGGTTAACTCCGGAGTCACCTAGTGCAG | 9570 fluorescence intensity (a.u.)
AGTTATCTGATTTGCCCTTGTATTGGTTTGTATCACGTCGCGGAGTCACCTAGTGCAG | 13400 fluorescence intensity (a.u.)
GGCAGGCAGGGGAACGCAAGGCATATCGTCGTCAATTCGTCGGAGTCACCTAGTGCAG | 8750 fluorescence intensity (a.u.)
TCGCCTTCACGGGCTCCCGTTGCCGTCTCGCGTCGTGCCCCGGAGTCACCTAGTGCAG | 8180 fluorescence intensity (a.u.)
TCTCTTTCCTTCTTTCCCCTTCCCGTTGACTTCACCGGGACGGAGTCACCTAGTGCAG | 9490 fluorescence intensity (a.u.)
CAAACGTTCGATACGGATATCCACGGCTGCACTTATTTTGCGGAGTCACCTAGTGCAG | 8120 fluorescence intensity (a.u.)

From article PMC7819943, “Rice protein-binding microarrays: a tool to detect cis-acting elements near promoter regions in rice”
